Publication PMC7201565
No constants are given. Whether binding was seen depends on the method and setting. Binding seen in cells or lysates may run through a third protein. Some entries that bind do so weakly or less than the wild type. Tags and fused reporters may be left off the sequences shown. One block for each binder: values may come before it.

Experiments:
Experiment in all cases: proximity ligation; Duolink mouse/rabbit kit on HuH7 cells co-transfected with two tagged constructs (500 ng each), 24 h post-transfection; antibodies against the epitope tags (Flag, myc, HA)
[1] = target: T1, wild-type ferroportin with Flag tag (Flag-FPN) (human), Q9NP59; conditions: remark: other sources report otherwise
T1 chain: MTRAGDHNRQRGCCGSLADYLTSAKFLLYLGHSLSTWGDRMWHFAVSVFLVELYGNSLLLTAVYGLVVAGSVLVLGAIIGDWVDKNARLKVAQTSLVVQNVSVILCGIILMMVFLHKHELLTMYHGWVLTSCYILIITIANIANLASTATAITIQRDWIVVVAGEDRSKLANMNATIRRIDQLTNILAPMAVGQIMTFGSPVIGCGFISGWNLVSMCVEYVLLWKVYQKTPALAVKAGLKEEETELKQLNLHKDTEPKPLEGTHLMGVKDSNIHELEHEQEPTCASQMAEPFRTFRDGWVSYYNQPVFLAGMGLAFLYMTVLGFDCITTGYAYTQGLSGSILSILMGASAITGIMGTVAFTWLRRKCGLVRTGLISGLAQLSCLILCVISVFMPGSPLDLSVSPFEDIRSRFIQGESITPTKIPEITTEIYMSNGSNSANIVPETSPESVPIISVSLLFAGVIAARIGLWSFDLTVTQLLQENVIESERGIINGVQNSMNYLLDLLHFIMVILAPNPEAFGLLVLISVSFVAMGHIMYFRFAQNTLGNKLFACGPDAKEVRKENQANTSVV

[2] = target: T2, wild-type ferroportin with HA tag (HA-FPN) (human), Q9NP59; conditions: remark: other sources report otherwise
T2 chain: T1 chain

[3] = target: T3, wild-type ferroportin with Flag tag (Flag-FPN) (human) (UniProt Q9NP59)
T3 sequence: T1 chain

[4] = target: T4, wild-type ferroportin with HA tag (HA-FPN) (human) (UniProt Q9NP59)
T4 sequence: T1 chain

binding [1]: binds
binding [2]: binds
B1: wild-type ferroportin with N-terminal myc tag (N-myc-FPN), Q9NP59 1-571 (protein)
chain: T1 chain

binding [1]: binds
binding [2]: binds
B2: wild-type ferroportin with C-terminal myc tag (C-myc-FPN), Q9NP59 1-571 (protein)
chain: T1 chain

binding [3]: binds
binding [4]: binds
B3: p.V162del ferroportin mutant with C-terminal myc tag (C-myc-FPN-V162del) (protein, UniProt Q9NP59 1-571)
chain: MTRAGDHNRQRGCCGSLADYLTSAKFLLYLGHSLSTWGDRMWHFAVSVFLVELYGNSLLLTAVYGLVVAGSVLVLGAIIGDWVDKNARLKVAQTSLVVQNVSVILCGIILMMVFLHKHELLTMYHGWVLTSCYILIITIANIANLASTATAITIQRDWIVVAGEDRSKLANMNATIRRIDQLTNILAPMAVGQIMTFGSPVIGCGFISGWNLVSMCVEYVLLWKVYQKTPALAVKAGLKEEETELKQLNLHKDTEPKPLEGTHLMGVKDSNIHELEHEQEPTCASQMAEPFRTFRDGWVSYYNQPVFLAGMGLAFLYMTVLGFDCITTGYAYTQGLSGSILSILMGASAITGIMGTVAFTWLRRKCGLVRTGLISGLAQLSCLILCVISVFMPGSPLDLSVSPFEDIRSRFIQGESITPTKIPEITTEIYMSNGSNSANIVPETSPESVPIISVSLLFAGVIAARIGLWSFDLTVTQLLQENVIESERGIINGVQNSMNYLLDLLHFIMVILAPNPEAFGLLVLISVSFVAMGHIMYFRFAQNTLGNKLFACGPDAKEVRKENQANTSVV
